Experimental data reported in PMC9684461, “RNA-controlled nucleocytoplasmic shuttling of mRNA decay factors regulates mRNA synthesis and a novel mRNA decay pathway” (Nature Communications, 2021).

Amino acid sequences for entries named in this document (tags omitted). A change or cut given only in a name is not applied to a line headed by its entry.
UniProt P22147: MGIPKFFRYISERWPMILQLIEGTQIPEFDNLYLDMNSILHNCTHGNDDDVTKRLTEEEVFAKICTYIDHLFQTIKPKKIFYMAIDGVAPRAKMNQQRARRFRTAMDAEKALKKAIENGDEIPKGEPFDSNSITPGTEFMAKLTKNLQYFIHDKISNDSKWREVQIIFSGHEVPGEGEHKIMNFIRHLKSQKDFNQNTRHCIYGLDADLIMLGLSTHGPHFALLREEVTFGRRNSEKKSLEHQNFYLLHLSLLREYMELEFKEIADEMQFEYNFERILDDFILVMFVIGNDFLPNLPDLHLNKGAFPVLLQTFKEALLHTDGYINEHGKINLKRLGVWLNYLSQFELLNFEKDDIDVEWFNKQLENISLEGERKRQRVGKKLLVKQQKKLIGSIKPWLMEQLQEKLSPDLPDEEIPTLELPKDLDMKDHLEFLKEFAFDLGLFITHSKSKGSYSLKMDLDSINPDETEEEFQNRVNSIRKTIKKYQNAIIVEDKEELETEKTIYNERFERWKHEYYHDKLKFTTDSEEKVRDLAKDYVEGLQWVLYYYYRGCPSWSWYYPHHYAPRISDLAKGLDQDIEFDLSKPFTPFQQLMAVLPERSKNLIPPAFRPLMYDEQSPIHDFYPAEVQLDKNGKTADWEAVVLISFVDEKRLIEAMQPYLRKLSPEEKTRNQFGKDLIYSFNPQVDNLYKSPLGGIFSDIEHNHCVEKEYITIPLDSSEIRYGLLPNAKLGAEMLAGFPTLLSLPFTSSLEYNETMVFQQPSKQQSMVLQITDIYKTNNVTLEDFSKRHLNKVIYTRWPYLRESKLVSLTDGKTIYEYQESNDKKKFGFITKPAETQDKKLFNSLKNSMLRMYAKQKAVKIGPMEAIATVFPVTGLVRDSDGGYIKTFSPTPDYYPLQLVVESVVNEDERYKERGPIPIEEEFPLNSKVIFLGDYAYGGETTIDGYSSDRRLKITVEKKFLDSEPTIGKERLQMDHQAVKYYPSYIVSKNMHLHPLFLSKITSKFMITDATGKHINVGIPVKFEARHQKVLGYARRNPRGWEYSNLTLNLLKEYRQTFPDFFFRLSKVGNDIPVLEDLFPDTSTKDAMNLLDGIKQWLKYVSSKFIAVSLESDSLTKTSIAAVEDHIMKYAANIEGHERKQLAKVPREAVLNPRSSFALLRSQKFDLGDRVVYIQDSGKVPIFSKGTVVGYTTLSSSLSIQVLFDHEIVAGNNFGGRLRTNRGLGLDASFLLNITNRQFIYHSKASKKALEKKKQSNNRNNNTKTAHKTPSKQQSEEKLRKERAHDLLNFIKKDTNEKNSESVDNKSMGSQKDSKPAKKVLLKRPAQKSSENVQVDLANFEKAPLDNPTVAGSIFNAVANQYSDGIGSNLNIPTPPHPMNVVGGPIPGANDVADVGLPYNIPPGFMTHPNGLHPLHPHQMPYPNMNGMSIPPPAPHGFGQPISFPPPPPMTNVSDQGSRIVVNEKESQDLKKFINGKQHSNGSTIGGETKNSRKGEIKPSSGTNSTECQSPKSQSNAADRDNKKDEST

B1: recombinant 6xHis-tagged Kap120 (natural protein, S. cerevisiae, UniProt Q02932 1-1032, looked up)
chain: MASSLNELNLVQVLEQASNPQHIRSDVQKLAEQQLRQWETQAGFHYLLQSIYLNLSNSLQIRWLAVIQFKNGVDKYWRSTRINAIPKDEKASIRGRLFEMIDEQNNQLCIQNAQASARIARLDFPVEWPTLFEDLENLLNDEIIRKDSVKIYNILMHINQIVKVLGTARIGRCRPAMQSKVPLILPLIVRIYLQSFEEWTTSSNLNYEDLSSLQVSYLALKVLRRIICEGYDRPQTDQSVCDFIKLSVSHFEMLISNHENFKKFDIYEKFIKCLGKLYFNLVTGSPANFILLPCSTQILITYTRLIFDKAPKVYRENSDVTGDFWEQTAIRGLLILKRVINFIHKKGAITLKARSDKLTIDASINKINTEFLNENLITRLVDTLMEWYLRLRPTELENWFMDPEEWINEQMATSYEYQIRPCAENVFQDLMNTFSELLVPYLLKKIENDASKLSNSLDDFLRKDAIYASFQLSASAVSEMVDFDRLLIQVFLPEATNTNISGDELRIIRRRVALIINEWSTVKCSEESKSLCYKLFTNFLTDEDDKVVLLTTVQTVRTMVDDWNFNKDTFQPFLTENVHLLLRKILPSVSLTETRLYVLNTLSDIIIQTKPLISRDLLVEILQIIPNLWEIATNNASEAILANALLRLLRNLVSSLGSQSHLTWDIAIPVVALACDPSSMQYQLLSEDGYELWGMLLQNFSSHDQEFDDKFVELVPFLKYGIETHTEILPTLLEIIKSYALILNPVDFFSNNTFQDIFKQMSKYLLKLREDSFQLVLEIWEILILSNESDYENLLLQKFYETGVLSALFDAIFLEEAPSSYLCSQIIQIIARISYVNPDALMTFLATYHDNLPTSNENARMPESIRKIVSKDQTYDSVVNKLLTGWIVCFRDIFDPKFKKVHILGISSLLRTGLVPILTEFSSIASLWIEMLEEINETNRGDCEKYHLNDIVTEQSIAFHPLTAEQLRYHQLCKNNDPVHNISLKDFISQSMEYLESHLGVERYQEFLKTINPSLLENLQMFLSIQPQEARP
notes: karyopherin (importin) Kap120 of S. cerevisiae; also called Kap120-6xHis; Kap120-His; source: E. coli, IPTG induced, purified (Ni-NTA)

Assays:
[1] = target: B1; assay: pull-down; purified Kap120-6xHis mixed with purified Xrn1-FLAG (WT or mutant), 1 h at 4 °C in a rotator; complex captured on Ni-NTA, Western blotting; Xrn1-FLAG intensity normalized to Kap120; both purified
[2] = target: FLAG-tagged Xrn1^ΔNLS1 (S. cerevisiae) (UniProt P22147); assay: co-IP; purified Kap120-6xHis and Xrn1-FLAG with mutations in the indicated NLS, with EDTA (2 mM) and increasing amounts of 40 nt RNA; complexes captured by anti-FLAG antibodies; both purified
[3] = target: FLAG-tagged Xrn1^ΔNLS2 (S. cerevisiae) (UniProt P22147); assay: as above

binding [1]	binding [2]	binding [3]	Molecule
binds			FLAG-tagged Xrn1^ΔNLS1 (from UniProt P22147) (enzyme)
binds			FLAG-tagged Xrn1^ΔNLS2 (from UniProt P22147) (enzyme)
	binds	binds	B1

No constants are given. Whether binding was seen depends on the method and setting. Binding calls can cover weak binding; strength is not graded here. Where a sequence is shown, tags or fusion partners need not be part of it. For some of these results: Binding seen in cells or lysates may run through a third protein.
